Test results: US9439432B2, “Phenylisoxazoline-based compound having herbicidal activity and use thereof” (MOGHU RESEARCH CENTER LTD, priority 2011, dated 2016)
Some entries share one result that the patent states for a list of compounds.

Tests used:
[1] = tested on: grass weeds including barnyardrass, large crabgrass, and annual bluegrass; assay: Pre-emergence treatment, grass weeds overall; type: in vivo; conditions: 62.5 to 125 g/ha
Experimental: (§1) A rectangular plastic pot having a surface area of 300 cm^2 was filled with sandy loam soil and mixed bed soil which were mixed at a ratio of 1:1, and then, barnyardrass (Echinochloa crusgalli), large crabgrass (Digitaria sanguinalis), blackgrass (Alopecurus myosuroides), and annual bluegrass (Poa annua), which are grass weeds, were seeded thereto. In a pot that was prepared as described above, seeds of corn, soybean, cotton, wheat, and rice were seeded. The pots were irrigated, and one day after, chemicals were sprayed thereto. The spraying was performed by using a track sprayer (R&D Sprayer, USA) equipped with a Teejet 8002 (Spraying Systems Co., USA) nozzle, and a spraying amount was adjusted at 300 L/ha. A spraying solution was prepared by dissolving test materials or references in acetone and adding the same amount of 0.2%(v/v) tween 20 aqueous solution thereto. Application rates were 500, 250, 125, and 62.5 g/ha. The pots were placed in a greenhouse in which during day, the temperature was maintained at a temperature of 25 to 30° C., and during night, the temperature was maintained at a temperature of 15 to 25° C., and the pots were periodically irrigated. Four weeks after the spraying the test materials or References, effects and phytotoxicity of the respective weeds and crops were evaluated in a scale of 0 to 10 (0: no effects, 10: complete death), and results thereof are shown in Table 4 below.

[2] = tested on: barnyardgrass, large crabgrass, and annual bluegrass; assay: Post-emergence treatment, grass weeds overall; type: in vivo; conditions: relative to reference compounds
Experimental: as §1
Pots containing crops and weeds were prepared in the same manner as in Example 7, and then, in the second week in which crops and weeds entered into about 3 leaf stage, the test materials and the references were sprayed thereto in the same manner as described above. The rates were 1,000, 500, 250, and 125 g/ha. Four weeks after the spraying of the test materials or the references, herbicidal efficacy and phytotoxicity to the respective weeds and crops were evaluated in a scale of 0 to 10 (0: no effects, 10: complete death).

Row | SMILES | control of grass weeds (barnyardrass, large crabgrass, annual bluegrass) [1] | herbicidal efficacy stronger than that of the references [2]
1 | CC1(COCc2c(F)cccc2F)CC(c2ccccc2Cl)=NO1 (centres unmarked) [Compound 2, 3-(2-chlorophenyl)-5-((2,6-difluorobenzyloxy)methyl)-5-methyl-4,5-dihydroisoxazole] | completely controlled | –
2 | CC1(COCc2c(F)cccc2F)CC(c2ccccc2Br)=NO1 (centres unmarked) [Compound 3, 3-(2-bromophenyl)-5-((2,6-difluorobenzyloxy)methyl)-5-methyl-4,5-dihydroisoxazole] | completely controlled | –
3 | CC1(COCc2c(F)cccc2F)CC(c2ccccc2C(F)(F)F)=NO1 (centres unmarked) [Compound 5, 5-((2,6-difluorobenzyloxy)methyl)-5-methyl-3-(2-(trifluoromethyl)phenyl)-4,5-dihydroisoxazole] | completely controlled | at least 4 times
4 | CC1(COCc2c(F)cccc2F)CC(c2ccccc2F)=NO1 (centres unmarked) [Compound 4, 5-((2,6-difluorobenzyloxy)methyl)-3-(2-fluorophenyl)-5-methyl-4,5-dihydroisoxazole] | completely controlled | at least 4 times
5 | Cc1ccccc1C1=NOC(C)(COCc2c(F)cccc2F)C1 (centres unmarked) [Compound 1, 5-((2,6-difluorobenzyloxy)methyl)-5-methyl-3-o-tolyl-4,5-dihydroisoxazole] | completely controlled | at least 4 times
